# Values of other authors, collected in EP1490333B1, “NEW ATORVASTATIN SALTS AND PHARMACEUTICAL COMPOSITIONS CONTAINING THEM” (Richter Gedeon Nyrt., priority 2002, dated 2003).
# Where a name gives a salt, the structure may show the parent alone.
# Conditions: in human; crystalline form compared with amorphous form; hemi-calcium salt; cited from earlier work
row,SMILES,absorption (rate and extent)
1,CC(C)c1c(C(=O)Nc2ccccc2)c(-c2ccccc2)c(-c2ccc(F)cc2)n1CC[C@@H](O)C[C@@H](O)CC(=O)O [crystalline form of atorvastatin hemi-calcium salt],significantly better rate and larger extent
2,CC(C)c1c(C(=O)Nc2ccccc2)c(-c2ccccc2)c(-c2ccc(F)cc2)n1CC[C@@H](O)C[C@@H](O)CC(=O)O [amorphous modification of atorvastatin hemi-calcium salt],worse
